Substitutions are numbered along the chain they refer to. Numbers in names are those of the source. Results are given in words; binding and its absence hold for the method and conditions named. Binding seen in cells or lysates may run through a third protein. Some results given as binding are weak or reduced against the parent protein; the word gives no strength. Where a sequence is shown, tags or fusion partners need not be part of it.
T1: GFP-Nap1 (Dictyostelium Nap1 tagged with GFP) (Dictyostelium discoideum) (UniProt Q869Q3)
T1 sequence: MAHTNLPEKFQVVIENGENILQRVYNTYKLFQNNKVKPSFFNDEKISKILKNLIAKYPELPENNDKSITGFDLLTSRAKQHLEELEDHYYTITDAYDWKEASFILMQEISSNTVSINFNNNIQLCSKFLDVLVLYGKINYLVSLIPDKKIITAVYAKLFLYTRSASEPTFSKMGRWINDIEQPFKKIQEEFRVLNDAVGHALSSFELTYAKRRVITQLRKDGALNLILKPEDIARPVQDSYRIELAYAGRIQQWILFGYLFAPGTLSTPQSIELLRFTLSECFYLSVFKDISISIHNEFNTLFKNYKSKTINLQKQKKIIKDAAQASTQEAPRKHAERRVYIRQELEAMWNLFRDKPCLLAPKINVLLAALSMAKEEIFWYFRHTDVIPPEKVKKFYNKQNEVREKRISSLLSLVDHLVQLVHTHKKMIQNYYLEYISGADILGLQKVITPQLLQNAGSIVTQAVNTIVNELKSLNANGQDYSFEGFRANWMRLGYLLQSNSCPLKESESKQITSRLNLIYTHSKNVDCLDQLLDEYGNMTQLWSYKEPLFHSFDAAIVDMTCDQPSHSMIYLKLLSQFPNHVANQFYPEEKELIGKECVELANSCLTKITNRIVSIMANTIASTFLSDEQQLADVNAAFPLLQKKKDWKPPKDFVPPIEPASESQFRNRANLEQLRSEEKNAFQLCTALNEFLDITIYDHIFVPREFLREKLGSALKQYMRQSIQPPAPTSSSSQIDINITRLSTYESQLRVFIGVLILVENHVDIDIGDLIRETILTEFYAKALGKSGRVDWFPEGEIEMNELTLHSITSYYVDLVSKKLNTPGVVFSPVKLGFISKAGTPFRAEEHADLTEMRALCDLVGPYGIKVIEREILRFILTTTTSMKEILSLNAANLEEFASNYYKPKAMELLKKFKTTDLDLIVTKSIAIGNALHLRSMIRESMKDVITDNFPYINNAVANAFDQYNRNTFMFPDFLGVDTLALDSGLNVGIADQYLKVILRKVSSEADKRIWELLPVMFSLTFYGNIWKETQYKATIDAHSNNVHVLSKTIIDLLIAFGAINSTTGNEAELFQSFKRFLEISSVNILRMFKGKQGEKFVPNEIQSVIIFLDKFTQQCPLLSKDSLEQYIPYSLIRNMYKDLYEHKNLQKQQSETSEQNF

B1: Scar^WT (Dictyostelium Scar expressed from pDM304 in scar- cells) (protein, UniProt Q54NF8 1-443)
chain: MVLITRYLPSVTDNNQPALEGQSKDQIVDTVITSTTVGIINQLTMLVAHSNSIFTALANDANLVTQRIEKLGSRIRPLIQSIPSIEDYHRNTSIDTMNSKPRAEFHADNSERNQHFTHASIPASINTVYEKCKPPPNLQLLDPYMDDGQKSLKLYTNPDFFMDEWVAEQQKLHEEARQRKRERREARLKKKGEKNEVEVKKVKSVTKVRYDPVTGEKITINIESPHTSSPQIQHQSNNTATPQHTTQHFGTNQYQAPPPPPLSQSSPSQQHSPINSYTPPPPPLNTSTPSPSSSFQGRPPSTGFNTPPPPMSNNNNMPPPPPMQQNGGAANNRLSVHNSAPIVAAPAPPPPPPPPSAPAPPPPPMAKAGGGASDIKPKASGARSDLLSSIMQGMALKPAEERKVAEAPKKEEALNVADILARRIAWAGDSDSSEDESDDSDWD
B2: Scar^S8A (unphosphorylatable Dictyostelium Scar) (protein, UniProt Q54NF8 1-443)
chain: B1 chain with S287A, S290A, S301A, S335A, S339A, S384A, S388A, S389A
B3: Scar^S8D (phosphomimetic Dictyostelium Scar) (protein, UniProt Q54NF8 1-443)
chain: B1 chain with S287D, S290D, S301D, S335D, S339D, S384D, S388D, S389D
B4: Pir121 (Dictyostelium PIR121) (protein, UniProt Q6UK63 1-1336)
chain: MSVDPKQSKIADVFERCDVLESFPFHDDQSEIEEQSPSIGYDAYDKSLNYTDRGAYETQWSEETIGMEKMEEVLKQGDSFINMVYTYRSCSKALPTVKTAEQVNKTQIYEGNFEVLEPEIKKLKDFMYFQKDTIKLFCDHIKKLASTYDKKKETISASESFINYLVRILDLLAILDALKNMKACLNNDFSFFKRATGFLRKQMSGTEDQTQENHTLYLFLANQNSITSSLKLELHNIDKFDDILPMIVNQCADYLEQEKYILPSEKHCLLRVMPFVLFLIDENDSKHNINKNKNLNISRYAKIFKKNPVVPLYGDMQITLESLVKRSPHFDEKAWGTSTLDSKSALDYEIIHVLDQTRSLYNEYMARFANMVNEIRAAKARGPKEPLPLAESDIQAITLMGLRILSDWTSRVLQQSAWKYSKPNNDPTISATFDYERVVKFNYTKEERTALVQLIAMIKSLASLMMKSETLLQPILRKTIHQELQEFVQINLKETIKSFVKNNPKKKDNIKLEMSQLKNISVDWFSGFEPAEAVPNKKSKEVEEKVQIPARAVPPSPTQLELILTLVSSLMDKKKDFSSDQYRDFEAFSSKAFFYRYLLSLSSSIISITDLADLWYREFYLELNNRVQFPIETSLPWILTDHILESDDPSLIEHLFYPLGLYNDTAQRALLSLNQRFLYDEIEAELNLCFDQLLYKLSGKVYTHFKTQASSILLDKPYKTQLELAHFNGKLHTPKSRFDVLLRQKHITLLGRSIDLCGLLAQRQNNTIRQNLDYAISRFEACDLTSIVELETQIANIKLTHKLLSEYFDIDPFESIFNEINESTSLVSYHGRIVLHIIFELVADFAPNYTFNSITQRFIKAPYTFTEELKRDALPKTNPVFLFGNKYLNAAYANSIELYKNFIGVPHIQSILRIVGKKNLPLIVAEVLRNIEIKITNVLSPYVSELLQGMPASTKLPIYDYGTEGGYGYFQLKLKDIYIYPDLRPEVLQTFRELGNSLVFMNLLDQVITQTDSYNFAKAAPFLGITPETWKDLEPSTEDPTLQSPLYSQLQKLAQLLESRPEVAKSSQSLNDMVANAWRADKFYRPSEQNFSLFKSVLQRFSSILNIVRHDWSGAPPDNGVICVDSSTEFYRLWSALQFVICWPLSNENDKSFHELFGDGLMWAGCSLIHFLGQQYRFELFDFCYHILNVEEAAAVRSDKPALKNFFKNAQIIKDINNQIFSILNTYCPPPPPSNMILSPPATEQAEQFIVTTTVEEQSIQQQQQQQQQQQLQQSTSNSGSSLSLSAAGAPPPPPPPSTNGLPPPPPMAEYEMSSSIDDFAPPPPPPFGMPPPPPM
B5: Abi (Dictyostelium Abi) (protein, UniProt Q55FT9 1-332)
chain: MSESIDINVYSQTTIPNAMAELMDNHNKMEQISAYCKSLYANGDAAQAYEQTQGYAKNALLNVAYHIQTVGTHITSLLQLQTNEMEKLNIEIQTLTQRVRMIHDSTGTNVFSNQDAAKPYKSSLKNRKVDTEATKAPVKYVHKPISYGISASDINQNGVPPPLNHSNSSANLTSSSGHLAASSTSNSSTPSYQSPSYSSQPTISSGTPPPIQKQPPRVGNAPPPPSLSVPAAPPPPVMNVPPPPPTSQRPSSVNNNAPSNDFPPPPPPSSSSSGGDLPPPPSFGLPPPPTLGDDFPPPPPPPVGSYDFPPPPARPQSQFYDHNDFPPPPPPM

target: T1, GFP-Nap1 (Dictyostelium Nap1 tagged with GFP) (Dictyostelium discoideum); test: co-IP; GFP-TRAP beads pull down GFP-Nap1 from cleared Dictyostelium lysates in TNE/T buffer (10 mM Tris-HCl pH 7.5, 150 mM NaCl, 0.5 mM EDTA, 0.1% Triton X-100), 2 hours at 4°C, 4 washes; eluates read by Coomassie gel, western blot (Pir121, Nap1, Scar, Abi) and LC-MS/MS of the Scar band; in S2 Fig cells with or without MG132

Binder	binding
B1	binds
B2	binds
B3	binds
B4	binds
B5	binds
